Two molecules from US7893021B2, “Parathyroid hormone antagonists and uses thereof” (Scantibodies Laboratory, Inc., priority 1999, dated 2011) can be followed below.

Like-named read-outs stand apart in the source and are kept apart here.

Data set [1] is described as follows: Nichols Intact (I-Nichols) PTH assay, recognition of PTH peptides. The text has this: (§1) This new Whole PTH two-site assay (Scantibodies Laboratories, Santee, Calif., USA) first employees and antibody that recognizes the 39-84 region of the PTH molecule. This antibody, produced in a goat and affinity purified, is present in relative excess and is immobilized onto polystyrene-coated tubes. The second antibody, also developed in a goat, was also affinity purified and recognizes only the first six amino acids (1 to 6; Ser-Val-Ser-Glu-Ile-Gln) of the human PTH molecule (FIG. 1). This anti-hPTH assay uses synthetic human PTH 1-84 as the standard, with a limit of detection of approximately 1 to 2 pg/mL. Normal values range from 5 to 35 pg/mL. […] The Whole PTH assay was compared with the Intact PTH assay purchases from the Nichols Institute (I-Nichols, San Jan Capistrano, Calif., USA). Synthetic human PTH 1-84 and 7-84 were purchased from Bachem (Torrance, Calif. USA). To assess circulating levels of hPTH 1-84 and non-(1-84) PTH, heparinized blood samples were obtained before dialysis from 28 patients who had been maintained on chronic hemodialysis for 1.2 to 7.5 years and from 14 renal transplant patients (1 to 6 years).

The test system of data set [2] is antibodies recognizing the 39-84 region and the first six amino acids (1 to 6) of the human PTH molecule. The data set can be described thus: Whole PTH IRMA assay, recognition of PTH peptides. More on the design: species or system goat. Conditions: concentrations as high as 10,000 pg/mL.
Source text: as §1

B1: hPTH 7-84: Synthetic human PTH 7-84 fragment, an exemplary PTH antagonist, obtained from Bachem (peptide)
peptide: LMHNLGKHLNSMERVEWLRKKLQDVHNFVALGAPLAPRDAGSQRPRKKEDNVLVESHEKSLGEANKADVNVLTKAKSQ
For B1, the “discrimination from hPTH 1-84 by the Nichols intact PTH assay” value in data set [1] is listed as “does not differentiate”; in data set [1] (listed as 7-84), “did not discriminate”. Further, the “detection by the Whole PTH assay” value in data set [2] is given as “undetectable”.

B2: hPTH 1-84: Synthetic human PTH 1-84, the whole 84 amino acid parathyroid hormone (SEQ ID NO:1), PTH agonist, purchased from Bachem (peptide)
chain: SVSEIQLMHNLGKHLNSMERVEWLRKKLQDVHNFVALGAPLAPRDAGSQRPRKKEDNVLVESHEKSLGEANKADVNVLTKAKSQ
Regarding B2, in data set [2], the “detection by the Whole PTH assay” value is given as “detected with a high degree of sensitivity”.
